Measured values: PubChem BioAssay AID504834 (National Center for Advancing Translational Sciences (NCATS), 2011)
Screen size: about 320,000 compounds; about 22,000 (6.9%) were called active. Inconclusive results, whose numbers are uncertain, are shown with a selection of clear calls. Calls come from the whole dose curve; as a rule, active = well fitted inhibition curve with a large enough effect; inconclusive = small, poorly fitted or top-dose-only effect, or another doubt; inactive = no such curve, though single readings can be large or run the other way. A potency beside an inconclusive call is a rough fit, not a confirmed value.

Assay: Primary qHTS for delayed death inhibitors of the malarial parasite plastid, 96 hour incubation
Conditions: P. falciparum luciferase reporter growth; series mostly up to 28.7 µM
Summary of the method: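 Luminescence readout: decreased luciferase signal marks inhibited growth of reporter-expressing P. falciparum in infected red cells (2% hematocrit, 0.05% parasitemia final), exposed to compound two generations (96 h, 37 C, 5% CO2).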
Potency is the fitted concentration of half-maximal effect.

SMILES	Potency
C=CCN(CC=C)c1nc2ccccc2nc1C(C#N)C(=O)OC(C)C (centres undefined)	inconclusive: 18.5 µM [inhibitor, single point]
COc1ccc(N(CC(=O)NC(C)C)S(=O)(=O)c2ccc(NC(C)=O)cc2)cc1	inconclusive: 7.38 µM [inhibitor, partial curve, poor fit]
CCOC(=O)c1c(NC(=O)c2nc3n(n2)C(C(F)F)CC(C)N3)sc2c1CCCC2 (centres undefined)	inconclusive: 13.1 µM [inhibitor, partial curve, poor fit]
COc1ccc(N2CC(C(=O)Nc3nc4ccccc4s3)CC2=O)cc1 (centres undefined)	inactive
Cn1nc(C(=O)NCCCN2CCCCC2)c2c1-c1ccccc1SC2	inconclusive: 18.5 µM [inhibitor, single point]
COC(=O)c1sccc1NC(=O)Nc1ccc(F)cc1F	active: 11.7 µM
CCOc1ccc(CN(C)C(=O)c2ccc3c(c2)NC(=O)C(C)S3)cc1OC (centres undefined)	inconclusive: 7.38 µM [inhibitor, partial curve]
O=C(CCN1CCOCC1)N/N=C/c1cc(Br)cc(Br)c1O	inconclusive: 18.5 µM [inhibitor, single point]
O=C(COC(=O)c1ccccc1C(=O)c1ccc(Cl)cc1)NCCc1ccccc1	inconclusive: 2.62 µM [inhibitor, single point]
COc1ccc(CCNC(=O)C2CCCN(c3ncnc4c3nc3n4CCCCC3)C2)c(OC)c1 (centres undefined)	inconclusive: 3.29 µM [inhibitor, partial curve]
Cc1ccc(NC(=O)C2CC(=O)Nc3ncnn32)c(C)c1 (centres undefined)	inactive
Cc1noc(C)c1C(=O)NNc1ccc(C(C)C)cc1	inconclusive: 0.117 µM [inhibitor, full curve, poor fit]
O=C(C1CCCN(C2CC(=O)N(c3ccc(Cl)cc3)C2=O)C1)N1CCCC1 (centres undefined)	inconclusive: 0.329 µM [inhibitor, full curve]
C=CCNC(=S)NCC=C	inactive
O=C(Nc1ccc(Cl)cc1)Nc1nnc(SCc2ccc(Cl)cc2)s1	active: 5.22 µM
O=C(Nc1nc2ccccc2s1)c1cc(-c2ccco2)nc2ccccc12	inactive
CCCn1c(SCC(=O)Nc2nc(-c3ccc(OC)cc3)cs2)nc2c1c(=O)n(C)c(=O)n2C	inconclusive: 0.928 µM [inhibitor, partial curve, poor fit]
O=c1o[nH]c(-c2ccccc2)c1N=Nc1c(F)cccc1Cl	inactive
O=C(N1CCOCCOc2ccccc2OCCOCC1)C(F)(F)F	inactive
CNc1cc(C)nc(N2CCOCC2)n1	inconclusive: 11.7 µM [inhibitor, single point]
CN(C)C(=O)O/N=C(\N)COc1ccc(C(C)(C)C)cc1	active: 11.7 µM
Cc1cc(N2CCN(S(=O)(=O)c3ccc(C)c(C)c3)CC2)c2ccccc2n1	inconclusive: 7.38 µM [inhibitor, partial curve, poor fit]
N#Cc1ccc(-c2nc3ccccc3nc2-c2ccccc2)cc1C#N	inactive
Cc1cccc(NC(=S)Nc2cccc(C)n2)n1	active: 13.1 µM
O=C(c1cn(-c2ccccc2)nc1-c1cccs1)N1CCN(c2ccc(F)cc2)CC1	active: 9.28 µM

SMILES	Potency
O=C(CCCN1C(=O)/C(=C\c2cccs2)SC1=S)Nc1cc([N+](=O)[O-])ccc1O	inactive
CCOc1cc(N2CCOCC2)c(OCC)cc1NC(=O)COC(=O)c1cc(C)cc(C)c1	inconclusive: 2.62 µM [inhibitor, single point]
COc1ccc(NC(=O)CSc2nnnn2C)cc1	inconclusive: 18.5 µM [inhibitor, single point]
CC(C)N1C(=S)SC(C)(C)C1n1oc(=O)n(-c2ccc(Cl)c(Cl)c2)c1=O (centres undefined)	inconclusive: 13.1 µM [inhibitor, partial curve, poor fit]
Cc1c(NC(=S)NC(=O)c2cccc(Br)c2)c(=O)n(-c2ccccc2)n1C	inconclusive: 0.465 µM [inhibitor, full curve, poor fit]
O=C(CCc1nnc(C2CCCCC2)o1)NCCCOc1cccnc1	inconclusive: 18.5 µM [inhibitor, single point]
COC(=O)c1ccc(/C=C/C(=O)c2ccc(OC)c(OC)c2)cc1	inconclusive: 3.29 µM [inhibitor, full curve, poor fit]
COc1ccc(CN2C(=O)C(CC(C)C)Nc3ncnc(N4CCCCC4)c32)cc1 (centres undefined)	inconclusive: 16.5 µM [inhibitor, single point]
CCCNC(=O)C(=O)NCC(c1ccc2c(c1)OCO2)N1CCN(c2ccc(F)cc2)CC1 (centres undefined)	inactive
O=C(NCC1CCCO1)C1CCCN(S(=O)(=O)c2cccc(C(F)(F)F)c2)C1 (centres undefined)	inconclusive: 14.7 µM [inhibitor, partial curve, poor fit]
CC(=O)NC1=C(C#N)C(c2ccccc2)c2c(ccc3ccccc23)O1 (centres undefined)	inconclusive: 13.1 µM [inhibitor, partial curve, poor fit]
CCOc1ccc(NC(=S)NC(=O)/C=C/c2ccco2)cc1	active: 11.7 µM
CCc1ccc(C(c2ccc(CC)cc2)C(Cl)Cl)cc1	inconclusive: 16.5 µM [inhibitor, single point]
COCCNC(=O)CN1C(=O)CSc2ncccc21	inconclusive: 5.86 µM [inhibitor, partial curve]
N#C/C(=N\Nc1ccc(S(=O)(=O)N2CCCCCC2)cc1)C(N)=S	inconclusive: 13.1 µM [inhibitor, partial curve, poor fit]
COc1ccccc1N1CCN(C(=O)Cn2nnc(-c3cccs3)n2)CC1	inactive
CC(C)C[C@H](NC(=O)N1CC(=O)Nc2ccccc21)C(=O)N[C@@H](Cc1ccccc1)C(=O)O	inconclusive: 0.329 µM [inhibitor, full curve, poor fit]
O=C(Nc1cccc2cccnc12)c1cccc(Cl)c1	inconclusive: 18.5 µM [inhibitor, single point]
COc1ccccc1C(=O)Nc1nnc(S(=O)(=O)N2CCC(C)CC2)s1	inconclusive: 0.294 µM [inhibitor, full curve, poor fit]
Cc1ccc2c(Cl)cc(Cl)c(OCC(=O)Nc3cccc(S(=O)(=O)N(C)C)c3)c2n1	inactive
CC(NCC(=O)Nc1ccccc1C(=O)NC1CC1)c1cccc(Cl)c1 (centres undefined)	inactive
CCOc1ccccc1C(=O)Nc1cccc2ccccc12	inactive
Cc1ccc(-c2csc(NC(=O)c3ccco3)n2)cc1C	active: 0.586 µM
O=C(COC(=O)/C=C/c1ccccc1)Nc1cccnc1Cl	inactive
Fc1ccc(CSc2ccc3nnc(-c4cccnc4)n3n2)cc1	inconclusive: 0.0047 µM [inhibitor, full curve, poor fit]

SMILES	Potency
Cc1ccc2oc(=O)c3cnn(CC(=O)NC4CCN(Cc5ccccc5)CC4)c3c2c1	active: 2.33 µM
CN(c1ccc(C(=O)N2CCN(Cc3ccccc3)CC2)cc1)S(=O)(=O)c1ccccc1	inconclusive: 18.5 µM [inhibitor, single point]
Cc1ccc(-c2ccc(OC(=O)c3ccc(=O)[nH]c3)c(C)c2)cc1	inactive
Cc1ccccc1CN1C[C@@H]2C[C@@H](c3cn[nH]c3-c3ccccc3)N3CCC[C@@]23C1=O	inconclusive: 10.4 µM [inhibitor, single point]
O=C(Nc1ccc2c(c1)OCCO2)c1cccc(Cl)c1	inconclusive: 0.0026 µM [inhibitor, full curve, poor fit]
O=C(Nc1nnc(Cc2c[nH]c3ccccc23)s1)c1ccc(Cl)cc1Cl	inactive
O=C(c1ccccc1)N1CCSc2sccc2C1=O	inactive
O=C(COc1cccc(C(F)(F)F)c1)Nc1ccc(S(=O)(=O)N2CCCC2)cc1	inactive
CCC(=O)Oc1ccc(C(=O)Nc2ccc3c(c2)C(=O)N(C2CCCCC2)C3=O)cc1	active: 10.4 µM
CCOC(=O)C1CCN(C(=O)c2c(C)oc3c2C(=O)c2ccccc2C3=O)CC1	active: 0.294 µM
CC#C[C@@H](CC)c1ccc2ccn(C)c2c1	inconclusive: 2.62 µM [inhibitor, partial curve, poor fit]
Cc1cc(C)n(CCNS(=O)(=O)c2ccccc2)n1	inactive
Cc1cc2oc(=O)cc(Cn3nnc(-c4ccc(Cl)cc4)n3)c2cc1C(C)C	inconclusive: 18.5 µM [inhibitor, single point]
c1ccc(-c2cnnc3ccccc23)cc1	inactive
CC(C)Cc1nnc(NC(=O)CN2C(=O)NC3(CCCC3)C2=O)s1	inactive
c1ccc(-c2ccc(-c3ccccn3)nn2)nc1	inactive
CCn1c(=O)c(C(=O)NCCN2CCCCC2)c(O)c2ccccc21	inactive
CN1C(N)=NC(=O)/C1=C/c1ccc(OC(F)(F)F)cc1	inactive
CCn1c(=O)c2cc(C(=O)N(C)c3ccccc3F)sc2c2ccccc21	inconclusive: 18.5 µM [inhibitor, single point]
Cc1ccc(NC(=O)CSc2nnc(N)s2)cc1S(=O)(=O)N1CCOCC1	inconclusive: 11.7 µM [inhibitor, partial curve]
COC(=O)c1ccc(NC(=O)C2CCN(S(C)(=O)=O)CC2)cc1	inconclusive: 18.5 µM [inhibitor, single point]
Cc1ccc2cccc(OCC(=O)Nc3ccc4c(c3)OCO4)c2n1	inactive
CCc1cccc2c(C(=O)CSc3nnc(-c4ccoc4C)n3C)c[nH]c12	inconclusive: 13.1 µM [inhibitor, single point]
COCc1ccc(C(=O)NC2CCCc3c2cnn3-c2ccc(C)c(C)c2)o1 (centres undefined)	inconclusive: 11.7 µM [inhibitor, single point]

Ordered by SMILES length (rising): part of the list above
SMILES	Potency
c1ccc(-c2cnnc3ccccc23)cc1	inactive
O=C(c1ccccc1)N1CCSc2sccc2C1=O	inactive
CC#C[C@@H](CC)c1ccc2ccn(C)c2c1	inconclusive: 2.62 µM [inhibitor, partial curve, poor fit]
Cc1cc(C)n(CCNS(=O)(=O)c2ccccc2)n1	inactive
O=C(Nc1ccc2c(c1)OCCO2)c1cccc(Cl)c1	inconclusive: 0.0026 µM [inhibitor, full curve, poor fit]
CN1C(N)=NC(=O)/C1=C/c1ccc(OC(F)(F)F)cc1	inactive
Cc1ccc2cccc(OCC(=O)Nc3ccc4c(c3)OCO4)c2n1	inactive
CCn1c(=O)c(C(=O)NCCN2CCCCC2)c(O)c2ccccc21	inactive
COC(=O)c1ccc(NC(=O)C2CCN(S(C)(=O)=O)CC2)cc1	inconclusive: 18.5 µM [inhibitor, single point]
CCn1c(=O)c2cc(C(=O)N(C)c3ccccc3F)sc2c2ccccc21	inconclusive: 18.5 µM [inhibitor, single point]
Cc1ccc(NC(=O)CSc2nnc(N)s2)cc1S(=O)(=O)N1CCOCC1	inconclusive: 11.7 µM [inhibitor, partial curve]
Cc1cc2oc(=O)cc(Cn3nnc(-c4ccc(Cl)cc4)n3)c2cc1C(C)C	inconclusive: 18.5 µM [inhibitor, single point]
CCOC(=O)C1CCN(C(=O)c2c(C)oc3c2C(=O)c2ccccc2C3=O)CC1	active: 0.294 µM
Cc1ccc2oc(=O)c3cnn(CC(=O)NC4CCN(Cc5ccccc5)CC4)c3c2c1	active: 2.33 µM
CCC(=O)Oc1ccc(C(=O)Nc2ccc3c(c2)C(=O)N(C2CCCCC2)C3=O)cc1	active: 10.4 µM
Cc1ccccc1CN1C[C@@H]2C[C@@H](c3cn[nH]c3-c3ccccc3)N3CCC[C@@]23C1=O	inconclusive: 10.4 µM [inhibitor, single point]

By substructure: those above containing bromine.
SMILES	Potency
O=C(CCN1CCOCC1)N/N=C/c1cc(Br)cc(Br)c1O	inconclusive: 18.5 µM [inhibitor, single point]
Cc1c(NC(=S)NC(=O)c2cccc(Br)c2)c(=O)n(-c2ccccc2)n1C	inconclusive: 0.465 µM [inhibitor, full curve, poor fit]
